# Data taken from article PMC10174191.
# Protein sequences, listed by entry. Tags and fused reporters are not part of them. Residues count along the entry.
# UniProt Q9QUK6, residues 26-835: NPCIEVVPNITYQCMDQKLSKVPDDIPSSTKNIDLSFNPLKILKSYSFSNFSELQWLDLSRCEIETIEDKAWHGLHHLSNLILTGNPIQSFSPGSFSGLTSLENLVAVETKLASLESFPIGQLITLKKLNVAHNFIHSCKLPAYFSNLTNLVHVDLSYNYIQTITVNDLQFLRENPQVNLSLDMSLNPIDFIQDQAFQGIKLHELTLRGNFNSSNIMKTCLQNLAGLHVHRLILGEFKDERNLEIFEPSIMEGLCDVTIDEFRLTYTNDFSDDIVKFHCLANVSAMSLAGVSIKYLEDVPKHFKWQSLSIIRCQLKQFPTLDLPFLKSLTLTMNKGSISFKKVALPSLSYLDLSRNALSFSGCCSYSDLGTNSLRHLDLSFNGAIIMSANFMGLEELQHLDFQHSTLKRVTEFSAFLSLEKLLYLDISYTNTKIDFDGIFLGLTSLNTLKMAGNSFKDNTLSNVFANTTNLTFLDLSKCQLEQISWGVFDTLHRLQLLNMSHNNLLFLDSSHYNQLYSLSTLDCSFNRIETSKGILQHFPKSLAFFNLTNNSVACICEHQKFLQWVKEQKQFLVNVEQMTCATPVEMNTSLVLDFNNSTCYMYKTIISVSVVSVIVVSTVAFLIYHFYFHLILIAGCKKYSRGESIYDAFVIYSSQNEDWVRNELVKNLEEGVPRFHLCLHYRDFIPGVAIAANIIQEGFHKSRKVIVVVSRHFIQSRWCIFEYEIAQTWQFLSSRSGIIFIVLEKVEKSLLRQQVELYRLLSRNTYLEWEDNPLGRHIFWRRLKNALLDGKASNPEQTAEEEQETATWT
# These are yes or no findings as the source states them, for the method shown. Binding seen in cells or lysates may run through a third protein. Some entries that bind do so weakly or less than the wild type. Where a sequence is shown, tags or fusion partners need not be part of it.
# T1: Flag-tagged TLR9 (UniProt Q9EQU3)
# T1 sequence: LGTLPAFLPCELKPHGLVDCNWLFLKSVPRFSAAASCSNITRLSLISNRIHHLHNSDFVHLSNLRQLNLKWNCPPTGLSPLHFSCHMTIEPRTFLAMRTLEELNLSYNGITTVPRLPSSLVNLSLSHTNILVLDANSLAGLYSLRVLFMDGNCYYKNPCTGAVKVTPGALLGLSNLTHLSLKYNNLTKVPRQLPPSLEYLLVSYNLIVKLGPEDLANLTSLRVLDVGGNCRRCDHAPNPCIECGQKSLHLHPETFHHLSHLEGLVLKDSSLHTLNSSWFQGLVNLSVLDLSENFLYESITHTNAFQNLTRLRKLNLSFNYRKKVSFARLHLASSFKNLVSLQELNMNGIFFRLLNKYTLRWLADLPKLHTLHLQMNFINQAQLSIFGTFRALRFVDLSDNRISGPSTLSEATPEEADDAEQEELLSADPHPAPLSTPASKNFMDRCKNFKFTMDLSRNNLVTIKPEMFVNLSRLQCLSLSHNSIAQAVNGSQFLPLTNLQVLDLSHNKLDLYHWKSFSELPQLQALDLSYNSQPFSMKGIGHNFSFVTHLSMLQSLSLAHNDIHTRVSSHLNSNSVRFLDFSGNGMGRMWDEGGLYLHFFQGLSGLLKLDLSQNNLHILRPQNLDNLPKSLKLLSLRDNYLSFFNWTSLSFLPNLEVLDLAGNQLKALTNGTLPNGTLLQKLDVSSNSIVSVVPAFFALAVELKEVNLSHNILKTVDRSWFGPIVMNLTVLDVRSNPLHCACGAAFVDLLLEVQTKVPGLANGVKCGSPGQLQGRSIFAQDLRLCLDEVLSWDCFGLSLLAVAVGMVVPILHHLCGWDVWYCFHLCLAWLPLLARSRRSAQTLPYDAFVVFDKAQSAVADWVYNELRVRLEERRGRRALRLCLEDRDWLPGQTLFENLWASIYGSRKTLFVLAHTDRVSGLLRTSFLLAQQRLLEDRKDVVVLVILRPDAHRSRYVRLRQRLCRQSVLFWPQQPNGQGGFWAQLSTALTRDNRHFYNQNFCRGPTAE
# T2: Flag-tagged TLR1 (UniProt Q9EPQ1)
# T2 sequence: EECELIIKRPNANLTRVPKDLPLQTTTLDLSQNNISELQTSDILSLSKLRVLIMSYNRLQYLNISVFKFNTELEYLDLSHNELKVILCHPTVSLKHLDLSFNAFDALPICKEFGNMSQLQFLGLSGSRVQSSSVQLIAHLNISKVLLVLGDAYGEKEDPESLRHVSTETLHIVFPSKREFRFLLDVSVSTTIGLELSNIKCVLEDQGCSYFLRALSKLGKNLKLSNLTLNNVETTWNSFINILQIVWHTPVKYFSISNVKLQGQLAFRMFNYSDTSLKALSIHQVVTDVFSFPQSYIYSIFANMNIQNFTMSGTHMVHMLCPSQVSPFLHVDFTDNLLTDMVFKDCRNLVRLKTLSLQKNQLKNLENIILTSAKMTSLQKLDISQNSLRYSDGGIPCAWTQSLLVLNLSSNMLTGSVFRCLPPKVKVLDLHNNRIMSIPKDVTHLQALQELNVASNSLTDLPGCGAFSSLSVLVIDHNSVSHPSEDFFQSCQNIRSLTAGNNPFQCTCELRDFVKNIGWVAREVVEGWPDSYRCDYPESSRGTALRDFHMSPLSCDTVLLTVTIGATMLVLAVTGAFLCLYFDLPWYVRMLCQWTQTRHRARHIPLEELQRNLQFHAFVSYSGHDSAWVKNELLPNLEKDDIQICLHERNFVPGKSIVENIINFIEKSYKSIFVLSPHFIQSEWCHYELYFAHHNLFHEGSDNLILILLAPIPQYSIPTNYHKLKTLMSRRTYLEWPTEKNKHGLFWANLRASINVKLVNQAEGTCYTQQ
# T3: Flag-tagged TLR7 (UniProt P58681)
# T3 sequence: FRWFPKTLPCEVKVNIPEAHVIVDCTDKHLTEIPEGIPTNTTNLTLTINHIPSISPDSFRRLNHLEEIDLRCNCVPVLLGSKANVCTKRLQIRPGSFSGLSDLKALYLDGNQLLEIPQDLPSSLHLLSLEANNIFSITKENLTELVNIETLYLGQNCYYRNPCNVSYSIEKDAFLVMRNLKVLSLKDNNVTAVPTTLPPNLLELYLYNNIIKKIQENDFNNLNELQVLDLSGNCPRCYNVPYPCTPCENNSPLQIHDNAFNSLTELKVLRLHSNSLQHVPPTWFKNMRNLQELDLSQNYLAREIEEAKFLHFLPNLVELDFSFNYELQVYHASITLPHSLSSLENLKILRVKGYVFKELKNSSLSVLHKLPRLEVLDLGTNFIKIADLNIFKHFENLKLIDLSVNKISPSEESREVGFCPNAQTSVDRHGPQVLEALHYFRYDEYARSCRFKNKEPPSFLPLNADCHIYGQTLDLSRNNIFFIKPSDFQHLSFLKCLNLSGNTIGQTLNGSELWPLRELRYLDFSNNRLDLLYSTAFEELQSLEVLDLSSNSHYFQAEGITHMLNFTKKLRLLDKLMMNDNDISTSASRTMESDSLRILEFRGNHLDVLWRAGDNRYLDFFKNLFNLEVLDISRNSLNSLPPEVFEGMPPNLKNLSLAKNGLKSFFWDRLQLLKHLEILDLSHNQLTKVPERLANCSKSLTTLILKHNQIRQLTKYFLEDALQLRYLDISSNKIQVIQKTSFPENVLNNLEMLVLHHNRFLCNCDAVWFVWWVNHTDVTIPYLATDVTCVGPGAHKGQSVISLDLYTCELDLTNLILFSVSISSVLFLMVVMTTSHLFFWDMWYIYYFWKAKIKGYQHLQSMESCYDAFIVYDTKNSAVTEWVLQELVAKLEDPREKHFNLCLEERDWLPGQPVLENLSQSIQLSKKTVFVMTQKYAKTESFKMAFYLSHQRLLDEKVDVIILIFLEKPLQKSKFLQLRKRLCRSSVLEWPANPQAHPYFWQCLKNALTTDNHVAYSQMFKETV
# Legend:
# Assay in all cases: co-IP; HEK293T cotransfected with ZNRF1-GFP and Flag-tagged TLR1, TLR4, TLR7 or TLR9 for 36 h; lysates immunoprecipitated with anti-M2-Flag antibody, immunoblotting
# [1] = molecular target: T1, Flag-tagged TLR9
# [2] = molecular target: T2, Flag-tagged TLR1
# [3] = molecular target: T3, Flag-tagged TLR7
# [4] = molecular target: Flag-tagged TLR4 (UniProt Q9QUK6)
binder,measurement,setting,value
"ZNRF1-GFP (enzyme, UniProt Q91V17 1-227) MGGKQSTAARSRGPFPGVSTDDSAVPPPGGAPHFGHYRTGGGAMGLRSRSVSSVAGMGMDPSTAGGVPFSLYTPASRGTGDSERAPGGGGSTSDSTYAHGNGYQETGGGHHRDGMLYLGSRASLADALPLHIAPRWFSSHSGFKCPICSKSVASDEMEMHFIMCLSKPRLSYNDDVLTKDAGECVICLEELLQGDTIARLPCLCIYHKSCIDSWFEVNRSCPEHPAD",binding,[1],binds
same,binding,[2],no binding
same,binding,[3],binds
same,binding,[4],no binding
